# PMC5426754
# No constants are given. Whether binding was seen depends on the method and setting. Some entries that bind do so weakly or less than the wild type.
# Molecular target: Ezrin N-ERMAD (N-terminal ERM domain, FERM domain, Met1-Lys296) (human) (UniProt P15311)
# Test: other fluorescence titration; steady-state tryptophan fluorescence; 2 μM ezrin construct titrated with S100 protein; 20 mM HEPES pH 7.5, 150 mM NaCl, 0.5 mM TCEP, 1 mM CaCl2; 25°C; quadratic binding equation; both purified
binder,measurement,value
"S100B (protein, UniProt P04271 1-92) MSELEKAMVALIDVFHQYSGREGDKHKLKKSELKELINNELSHFLEEIKEQEVVDKVMETLDNDGDGECDFQEFMAFVAMVTTACHEFFEHE",binding,binds weakly
